At least one structure is not confirmed: it was looked up by name or label, or the drawing left a doubt.
Assays:
Assay type in all cases: cell-based
[1] = tested on: CD201 and CD86 in OCI-AML5; test: FACS analysis of CD201 and CD86; settings: OCI-AML5, 24 hrs; UM171 250 nM, Panobinostat 5 nM, TCP 10 μM
Description: (§1) Mouse anti-human antibodies were used to detect CD34 (APC or BV421-BD Biosciences), CD45RA (PE-BD Biosciences), CD86 (PerCP-eFluor710-eBioscience), CD90 (PECY7- BioLegend), and CD201 (APC-BioLegend). Flow cytometry acquisitions were performed on a Canto II cytometer (BD Biosciences) and data analysis was performed using FowJo software (Tree Star, Ashland, Oreg., USA) and GraphPad Prism software. Dead cells were excluded using 7AAD staining.

[2] = tested on: H3K27Ac and H3K4me2 in OCI-AML5; test: Flow cytometry of H3K27Ac, H3K4me2 and H3; settings: OCI-AML5, 24 hrs; UM171 250 nM, Panobinostat 5 nM, TCP 10 μM
[3] = tested on: CD201 and CD86 in OCI-AML1 cells; test: Flow cytometry of CD201 and CD86 surface expression; settings: Panobinostat 5 nM, TCP 5 μM
Description: as §1

Structure (SMILES): Cc1[nH]c2ccccc2c1CCNCc1ccc(/C=C/C(=O)NO)cc1 [Panobinostat, panobinostat]
- CD201 and CD86 expression compared to DMSO [1]: upregulation
- H3K27Ac and H3K4me2 marks [2]: induces
- CD86 expression in shKBTBD4 expressing cells [3]: induces

Reference: US20230073512A1, “MODULATORS OF CULLIN 3 ADAPTOR KBTBD4 AS ANTI-CANCER COMPOUNDS” (UNIVERSITE DE MONTREAL, priority 2019, published 2023)
